Source: patent publication US20230069722A1 (priority 2020, published 2023)
Where two headings read alike, the source gives them in different places.

Experiment: general procedure: solution-phase peptide synthesis; pentafluorophenol (PFP) / DIC, DIPEA

Substance: (4S)-4-({2-[(1R,3R)-1-(acetyloxy)-4-methyl-3-[(2S,3S)-3-methyl-2-{[(2R)-1-methylpiperidin-2-yl]formamido}-N-(pent-4-yn-1-yloxy)pentanamido]pentyl]-1,3-thiazol-4-yl}formamido)-5-[4-(2-hydroxyacetamido)phenyl]-2,2-dimethylpentanoic Acid
- purity (crude or final not stated): 99%
- step yield (coupling step): 48% yield

Substance: (4S)-5-[4-(2-aminoacetamido)-3-fluorophenyl]-4-({2-[(1R,3R)-3-[(2S,3S)—N-hexyl-3-methyl-2-{[(2R)-1-methylpiperidin-2-yl]formamido}pentanamido]-1-hydroxy-4-methylpentyl]-1,3-thiazol-4-yl}formamido)-2,2-dimethylpentanoic Acid
- final HPLC purity (coupling step): 95%
- step yield (coupling step, from 3 Da): 15%

Substance: (4S)-4-({2-[(1R,3R)-1-(acetyloxy)-3-[(2S,3S)-2-{[(2R)-1,2-dimethylpyrrolidin-2-yl]formamido}-N-hexyl-3-methylpentanamido]-4-methylpentyl]-1,3-thiazol-4-yl}formamido)-5-(4-aminophenyl)-2,2-dimethylpentanoic Acid
- final HPLC purity: >99%
- step yield (coupling step): 6.7%

Substance: (4S)-4-({2-[(1R,3R)-1-(acetyloxy)-3-[(2S,3S)—N-hexyl-3-methyl-2-{[(2R)-1-methylpiperidin-2-yl]formamido}pentanamido]-4-methylpentyl]-1,3-thiazol-4-yl}formamido)-5-(4-fluorophenyl)-2,2-dimethylpentanoic Acid
- final HPLC purity (coupling step): >99%
- step yield (coupling step, from 3Fa): 26%

Substance: (4S)-4-({2-[(1R,3R)-1-(acetyloxy)-3-[(2S,3S)—N-hexyl-3-methyl-2-[(2R)-piperidin-2-ylformamido]pentanamido]-4-methylpentyl]-1,3-thiazol-4-yl}formamido)-5-(4-amino-3-fluorophenyl)-2,2-dimethylpentanoic Acid
- final HPLC purity (coupling step): >99%
- step yield (coupling step, from 3Fb): 7.5%

Substance: (4S)-4-({2-[(1R,3R)-1-(acetyloxy)-4-methyl-3-[(2S,3S)-3-methyl-2-{[(2R)-1-methylpiperidin-2-yl]formamido}-N-(pent-4-yn-1-yloxy)pentanamido]pentyl]-1,3-thiazol-4-yl}formamido)-5-(4-aminophenyl)-2,2-dimethylpentanoic Acid
- purity (crude or final not stated) (coupling step): 95%
- step yield (coupling step): 27%

Substance: (4S)-5-(4-amino-3-fluorophenyl)-4-({2-[(1R,3R)-1-{[(2-aminoethyl)carbamoyl]oxy}-3-[(2S,3S)—N-hexyl-3-methyl-2-{[(2R)-1-methylpiperidin-2-yl]formamido}pentanamido]-4-methylpentyl]-1,3-thiazol-4-yl}formamido)-2,2-dimethylpentanoic Acid
- final HPLC purity (coupling step): >99%
- step yield (coupling step, from 3Eb): 19%

Substance: (4S)-4-({2-[(1R,3R)-1-(acetyloxy)-3-[(2S,3S)—N-hexyl-3-methyl-2-{[(2R)-1-methylpiperidin-2-yl]formamido}pentanamido]-4-methylpentyl]-1,3-thiazol-4-yl}formamido)-5-(4-aminophenyl)-2,2-dimethylpentanoic Acid
- final HPLC purity (coupling step): 99%
- step yield (coupling step, from 3Fa): 50%

Substance: (4S)-5-(4-aminophenyl)-4-({2-[(1R,3R)-1-hydroxy-4-methyl-3-[(2S,3S)-3-methyl-2-{[(2R)-1-methylpiperidin-2-yl]formamido}-N-(pent-4-yn-1-yloxy)pentanamido]pentyl]-1,3-thiazol-4-yl}formamido)-2,2-dimethylpentanoic Acid
- final HPLC purity (late stage modification step): >99%
- step yield (late stage modification step): 90%

Substance: (4S)-5-(4-aminophenyl)-4-({2-[(1R,3R)-1-ethoxy-3-[(2S,3S)—N-hexyl-3-methyl-2-{[(2R,4R)-4-methylpiperidin-2-yl]formamido}pentanamido]-4-methylpentyl]-1,3-thiazol-4-yl}formamido)-2,2-dimethylpentanoic Acid
- final HPLC purity: 99%
- step yield (coupling step): 29%

Substance: (4S)-4-({2-[(1R,3R)-1-(acetyloxy)-4-methyl-3-[(2S,3S)-3-methyl-2-{[(2R)-2-methylpyrrolidin-2-yl]formamido}-N-(pent-4-yn-1-yloxy)pentanamido]pentyl]-1,3-thiazol-4-yl}formamido)-5-(4-amino-3-fluorophenyl)-2,2-dimethylpentanoic Acid
- final HPLC purity (coupling step): 99%
- step yield (coupling step, from 3Ib): 42%

Substance: (4S)-4-Amino-5-{4-[(2S)-5-(carbamoylamino)-2-[(2S)-2-[(2S)-4-carboxy-2-{[(9H-fluoren-9-ylmethoxy)carbonyl]amino}butanamido]-3-methylbutanamido]pentanamido]phenyl}-2,2-dimethylpentanoic acid
- step yield (coupling step, from L1-1a): 48% yield

Substance: (4S)-4-({2-[(1R,3R)-1-(acetyloxy)-4-methyl-3-[(2S,3S)-3-methyl-2-{[(2R)-1-methylpiperidin-2-yl]formamido}-N-(pent-4-yn-1-yloxy)pentanamido]pentyl]-1,3-thiazol-4-yl}formamido)-5-(4-hydroxyphenyl)-2,2-dimethylpentanoic Acid
- purity (crude or final not stated) (coupling step): 95%
- step yield (coupling step, from 3Ia): 12%

Substance: (4S)-4-({2-[(1R,3R)-1-(acetyloxy)-3-[(2S,3S)—N-hexyl-3-methyl-2-{[(2R)-1-methylpiperidin-2-yl]formamido}pentanamido]-4-methylpentyl]-1,3-thiazol-4-yl}formamido)-5-[4-(2-aminoacetamido)phenyl]-2,2-dimethylpentanoic Acid
- final HPLC purity (coupling step): 95%
- step yield (coupling step, from 3Fa): 11%

Substance: (4S)-5-(4-amino-3-fluorophenyl)-4-({2-[(1R,3R)-1-ethoxy-3-[(2S,3S)—N-hexyl-3-methyl-2-{[(2R)-1-methylpiperidin-2-yl]formamido}pentanamido]-4-methylpentyl]-1,3-thiazol-4-yl}formamido)-2,2-dimethylpentanoic Acid
- final HPLC purity (coupling step): >99%
- step yield (coupling step): 70%

Substance: (4S)-4-({2-[(1R,3R)-1-(acetyloxy)-3-[(2S,3S)—N-hexyl-3-methyl-2-{[(2R)-1-methylpiperidin-2-yl]formamido}pentanamido]-4-methylpentyl]-1,3-thiazol-4-yl}formamido)-5-[4-(2-aminoacetamido)-3-fluorophenyl]-2,2-dimethylpentanoic Acid
- final HPLC purity (coupling step): 98%
- step yield (coupling step, from 3Fa, TFA salt): 39%

Substance: (4S)-5-(4-amino-3-fluorophenyl)-4-({2-[(1R,3R)-1-ethoxy-3-[(2S,3S)—N-hexyl-3-methyl-2-{[(2R,4R)-4-methylpiperidin-2-yl]formamido}pentanamido]-4-methylpentyl]-1,3-thiazol-4-yl}formamido)-2,2-dimethylpentanoic Acid
- final HPLC purity: 99%
- step yield (coupling step, from 3Bc): 26%

Substance: (4S)-4-({2-[(1R,3R)-1-(acetyloxy)-4-methyl-3-[(2S,3S)-3-methyl-2-{[(2R)-1-methylpiperidin-2-yl]formamido}-N-(pent-4-yn-1-yloxy)pentanamido]pentyl]-1,3-thiazol-4-yl}formamido)-5-[4-(2-aminoacetamido)phenyl]-2,2-dimethylpentanoic Acid
- step yield (coupling step, in 3 steps from 3Ia, TFA salt): 11% yield

Substance: (4S)-5-(4-aminophenyl)-4-({2-[(1R,3R)-1-acetamido-3-[(2S,3S)—N-hexyl-3-methyl-2-{[(2R)-1-methylpiperidin-2-yl]formamido}pentanamido]-4-methylpentyl]-1,3-thiazol-4-yl}formamido)-2,2-dimethylpentanoic Acid
- final HPLC purity (coupling step): >99%
- step yield (coupling step, from compound 3C): 12%
